Experimental data: PubChem BioAssay AID1259308 (NCATS, 2017)

Purpose: 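Candidate targets for better recombinant protein yield in mammalian cells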 (primary screen)
Cells: human HEK293 embryonic kidney cells stably expressing firefly luciferase (HEK-CMV-Luc2-Hygro)
Reagents: single siRNA against human genes, 0.8 pmol siRNA per well
Timing: 72 h
Measured: 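Luciferase light (ONE-Glo) measured on one replicate plate set and viability (CellTiter-Glo) on the other, scaled to a negative control siRNA, with robust z-scores and luciferase per cell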
Direction: total luciferase, z-score and total luciferase, % of control: higher = more reporter protein produced
Rule for the call: 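Active when the median/MAD z-score for overall luciferase is greater than 3; a gene was taken forward for validation with new siRNAs if at least two of its three siRNAs passed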
Meaning of the calls: active = raised luciferase; inactive = no rise
The deposit covers about 59,000 reagents; shown is a part drawn at random. About 1,510 of all reagents (2.6%) count as active. 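Calls use total luciferase alone and ignore viability, so some active siRNAs may act by altering cell number.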 A number with no mark means an inactive call. The numbers tell different reagents against one gene apart. Further read-outs or replicates are left out here. No sequences are given here.

Silencing of RPL23 (ribosomal protein L23) #1 resulted in: total luciferase, z-score -2.63; total luciferase, % of control 29.5.
With knock-down of RPL23 (ribosomal protein L23) #2, the record shows total luciferase, z-score -1.98; total luciferase, % of control 42.4.
With knock-down of RPL23 (ribosomal protein L23) #3, the record shows total luciferase, z-score -3.14; total luciferase, % of control 19.5.
For GRAP2 (GRB2 related adaptor protein 2) #1 the deposit lists total luciferase, z-score 0.761; total luciferase, % of control 97.
For GRAP2 (GRB2 related adaptor protein 2) #2, the entry reads total luciferase, z-score 0.409; total luciferase, % of control 90.
GRAP2 (GRB2 related adaptor protein 2) #3 scored total luciferase, z-score -0.678; total luciferase, % of control 68.4.
Depletion of TMEM101 (transmembrane protein 101) #1 gave: total luciferase, z-score -0.714; total luciferase, % of control 67.7.
TMEM101 (transmembrane protein 101) #2 gave total luciferase, z-score 0.801; total luciferase, % of control 97.8.
Against TMEM101 (transmembrane protein 101) #3, the entry reads total luciferase, z-score -1.11; total luciferase, % of control 59.8.
After knock-down of POLR2MP1 (POLR2M pseudogene 1) #1 the results were total luciferase, z-score 0.412; total luciferase, % of control 90.1.
After knock-down of POLR2MP1 (POLR2M pseudogene 1) #2, the record shows total luciferase, z-score -0.641; total luciferase, % of control 69.1.
Knock-down of POLR2MP1 (POLR2M pseudogene 1) #3 came out at: total luciferase, z-score -0.849; total luciferase, % of control 65.
Knock-down of CXCL16 (C-X-C motif chemokine ligand 16) #1 came out at: total luciferase, z-score 1.42; total luciferase, % of control 110.
With knock-down of CXCL16 (C-X-C motif chemokine ligand 16) #2, the record shows total luciferase, z-score -0.517; total luciferase, % of control 71.6.
After knock-down of CXCL16 (C-X-C motif chemokine ligand 16) #3, the record shows total luciferase, z-score -0.312; total luciferase, % of control 75.7.
ANKRD6 (ankyrin repeat domain 6) #1 gave total luciferase, z-score -1.49; total luciferase, % of control 52.2.
For ANKRD6 (ankyrin repeat domain 6) #2, the entry reads total luciferase, z-score 7.5 (active); total luciferase, % of control 231.
After knock-down of ANKRD6 (ankyrin repeat domain 6) #3 the results were total luciferase, z-score -0.0506; total luciferase, % of control 80.9.
After knock-down of AMD1P3 (adenosylmethionine decarboxylase 1 pseudogene 3) #1, the screen gave total luciferase, z-score -0.536; total luciferase, % of control 71.2.
AMD1P3 (adenosylmethionine decarboxylase 1 pseudogene 3) #2 gave total luciferase, z-score 0.205; total luciferase, % of control 86.
For AMD1P3 (adenosylmethionine decarboxylase 1 pseudogene 3) #3 the deposit lists total luciferase, z-score -0.972; total luciferase, % of control 62.5.
After knock-down of ZSWIM3 (zinc finger SWIM-type containing 3) #1, the screen gave total luciferase, z-score 0.0985; total luciferase, % of control 83.8.
Silencing of ZSWIM3 (zinc finger SWIM-type containing 3) #2 gave: total luciferase, z-score 1.51; total luciferase, % of control 112.
Depletion of ZSWIM3 (zinc finger SWIM-type containing 3) #3 came out at: total luciferase, z-score 0.32; total luciferase, % of control 88.3.
For PEX1 (peroxisomal biogenesis factor 1) #1, the values are total luciferase, z-score 0.122; total luciferase, % of control 84.3.
Silencing of PEX1 (peroxisomal biogenesis factor 1) #2 gave: total luciferase, z-score 1.25; total luciferase, % of control 107.
PEX1 (peroxisomal biogenesis factor 1) #3 showed total luciferase, z-score -0.419; total luciferase, % of control 73.6.
With knock-down of DSEL (dermatan sulfate epimerase like) #1 the results were total luciferase, z-score -0.98; total luciferase, % of control 62.4.
With knock-down of DSEL (dermatan sulfate epimerase like) #2, the record shows total luciferase, z-score -0.0347; total luciferase, % of control 81.2.
After knock-down of DSEL (dermatan sulfate epimerase like) #3, the screen gave total luciferase, z-score 1.05; total luciferase, % of control 103.
Knock-down of SPTBN4 (spectrin beta, non-erythrocytic 4) #1 came out at: total luciferase, z-score -0.149; total luciferase, % of control 78.9.
With knock-down of SPTBN4 (spectrin beta, non-erythrocytic 4) #2 the results were total luciferase, z-score -0.818; total luciferase, % of control 65.6.
With knock-down of SPTBN4 (spectrin beta, non-erythrocytic 4) #3, the record shows total luciferase, z-score -0.398; total luciferase, % of control 74.

Reprinted from the entries so far (4 entries):
AMD1P3 (adenosylmethionine decarboxylase 1 pseudogene 3) #3: total luciferase, z-score = -0.972; total luciferase, % of control = 62.5
ZSWIM3 (zinc finger SWIM-type containing 3) #1: total luciferase, z-score = 0.0985; total luciferase, % of control = 83.8
ZSWIM3 (zinc finger SWIM-type containing 3) #2: total luciferase, z-score = 1.51; total luciferase, % of control = 112
ZSWIM3 (zinc finger SWIM-type containing 3) #3: total luciferase, z-score = 0.32; total luciferase, % of control = 88.3
